From US20160250288A1 come the findings set out here.

Sequences of proteins named here, by UniProt entry; tags and fusion partners are left off. A change or cut given only in a name is not applied to a line headed by its entry.
UniProt P32114: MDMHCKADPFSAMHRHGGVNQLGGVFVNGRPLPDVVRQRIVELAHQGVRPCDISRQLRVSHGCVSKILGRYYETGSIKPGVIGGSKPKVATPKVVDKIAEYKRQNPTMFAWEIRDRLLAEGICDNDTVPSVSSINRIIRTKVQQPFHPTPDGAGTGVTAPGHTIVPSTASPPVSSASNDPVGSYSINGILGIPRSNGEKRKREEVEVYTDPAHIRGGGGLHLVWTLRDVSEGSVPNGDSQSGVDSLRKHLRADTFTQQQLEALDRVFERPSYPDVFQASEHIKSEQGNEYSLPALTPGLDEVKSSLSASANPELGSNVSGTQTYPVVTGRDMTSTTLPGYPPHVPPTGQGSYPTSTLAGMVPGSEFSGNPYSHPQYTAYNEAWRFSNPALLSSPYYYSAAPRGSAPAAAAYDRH
UniProt Q2NKI2: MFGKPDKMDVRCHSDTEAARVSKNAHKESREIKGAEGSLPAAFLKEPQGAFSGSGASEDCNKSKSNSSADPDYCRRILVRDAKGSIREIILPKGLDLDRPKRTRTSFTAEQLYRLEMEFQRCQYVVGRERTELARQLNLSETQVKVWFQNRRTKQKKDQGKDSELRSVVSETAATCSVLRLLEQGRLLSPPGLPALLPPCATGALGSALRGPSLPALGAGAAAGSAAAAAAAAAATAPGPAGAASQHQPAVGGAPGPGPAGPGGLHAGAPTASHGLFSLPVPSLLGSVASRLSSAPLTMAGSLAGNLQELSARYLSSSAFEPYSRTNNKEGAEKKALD

Assay [1] addresses Pax2, endogenous in mouse optic nerve (mouse) (UniProt P32114). Kind of assay: co-immunoprecipitation with anti-Vax1 antibody, E14.5 mouse optic nerve treated with heparin.
Assay [2] shares this target. In words: co-immunoprecipitation with anti-Vax1 antibody, Western blot, E14.5 mouse optic nerve, with and without 1 mg/ml heparin.

These are yes or no findings as the source states them, for the method shown. In cells and extracts the contact can be indirect. Some results given as binding are weak or reduced against the parent protein; the word gives no strength.

For the substance “Vax1 (ventral anterior homeobox 1), mouse (from UniProt Q2NKI2 1-338)”, the binding entry in assay [1] and in assay [2] was “binds” in each case.
